# In PMC7819943, “Rice protein-binding microarrays: a tool to detect cis-acting elements near promoter regions in rice”:
# The list shows a part of the results.
# Molecular target: T1, OsSMF1 (Oryza sativa, UniProt Q6ZLB0 1-436)
# T1 sequence: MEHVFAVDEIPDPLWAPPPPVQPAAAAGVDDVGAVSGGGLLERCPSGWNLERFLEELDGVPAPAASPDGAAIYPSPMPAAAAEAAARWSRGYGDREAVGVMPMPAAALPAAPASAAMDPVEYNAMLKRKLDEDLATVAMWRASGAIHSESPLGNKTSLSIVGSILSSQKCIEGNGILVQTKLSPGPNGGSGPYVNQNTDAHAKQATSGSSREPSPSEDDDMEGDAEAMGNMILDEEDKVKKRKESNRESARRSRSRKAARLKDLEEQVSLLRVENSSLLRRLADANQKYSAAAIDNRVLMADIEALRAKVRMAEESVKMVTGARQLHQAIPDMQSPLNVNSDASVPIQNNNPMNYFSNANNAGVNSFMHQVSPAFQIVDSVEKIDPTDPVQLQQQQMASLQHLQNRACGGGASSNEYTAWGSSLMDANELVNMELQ
# Test: protein-binding microarray (RPBM); PBS, 2% BSA, 51.3 ng/ul salmon testes DNA, 50 uM zinc acetate, 200 nM TF, 25 C, 1 h; high values mean tight binding
# Conditions: protein: recombinant; tags: N-terminal polyhistidine and DsRed monomer fusion (pET32a); chain copies: 2; label: CyDye5-dUTP incorporated in the synthesized complementary strand; 3' TTTTT single-stranded linker to array surface; dsDNA, one strand shown
# In short: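 Transcription factors, each fused N-terminally to a polyhistidine tag and DsRed, were expressed in E. coli BL21-CodonPlus and purified on Ni–NTA. A custom Agilent array was made double-stranded by primer extension with Cy5-dUTP and blocked with 2% BSA. It was incubated with 200 nM protein in PBS, 2% BSA, salmon testes DNA and 50 µM zinc acetate at 25 °C for 1 h, then washed. The binding signal is per-feature fluorescence intensity (arbitrary units) read on an Axon 4000B scanner.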
row,Sequence,binding signal
1,CCCCTTCGATACAAACGAAGCCGCCGCTCCGCATCAGCAGCGGAGTCACCTAGTGCAG,4920 fluorescence intensity (a.u.)
2,AAACCCTCGCAACGTATCATGCCACATAATGCCACATAGACGGAGTCACCTAGTGCAG,3890 fluorescence intensity (a.u.)
3,CTACGACGCGGGCCACACGTCCCCGTGACAACTCATGCCACGGAGTCACCTAGTGCAG,3730 fluorescence intensity (a.u.)
4,CGCCCCAATTTCCATGTACACGTAGCAGTTTCTCCCAAAACGGAGTCACCTAGTGCAG,6860 fluorescence intensity (a.u.)
5,AGATAGAGAAGATATGCAAAACGATGTGAGTCATTAATGTCGGAGTCACCTAGTGCAG,6330 fluorescence intensity (a.u.)
6,GAAATTTCTATGAAGGAAGCTTAAATCAGTGGTAACCGATCGGAGTCACCTAGTGCAG,3140 fluorescence intensity (a.u.)
7,AAGCAGTCAAGCTAAACCCGTCATTATTTCAGTTTGATGTCGGAGTCACCTAGTGCAG,4150 fluorescence intensity (a.u.)
8,TTCGGGGATGTGAATGGGAATGGATTGGATCTTGGGATTACGGAGTCACCTAGTGCAG,3620 fluorescence intensity (a.u.)
9,TTAGGGTTTACTCCTGATTTGCACCGGTATTTTCTTAGGGCGGAGTCACCTAGTGCAG,3860 fluorescence intensity (a.u.)
10,CCTCCCTCCCATCCGATCCCGTCCGTCCATCTCCGATCCGCGGAGTCACCTAGTGCAG,4300 fluorescence intensity (a.u.)
11,AACTCCTCGCCACCACGCCGCTTTATTCTCTAAGAACCCCCGGAGTCACCTAGTGCAG,40700 fluorescence intensity (a.u.)
12,AGGCTTGTAGACGTGTTAAGGTTCCTGCCTGTACAAATGCCGGAGTCACCTAGTGCAG,3590 fluorescence intensity (a.u.)
13,CGCCCGCTGCATGCCACCTATGTCTGCGTTATTGCTTCTCCGGAGTCACCTAGTGCAG,5160 fluorescence intensity (a.u.)
14,GCTAACGCAGCAATGACACGTCAAGAACTGAAAATTAAATCGGAGTCACCTAGTGCAG,3580 fluorescence intensity (a.u.)
15,ACACGCAGTCGCGCCTTCCCCAGTCACCAACACGCCGAGGCGGAGTCACCTAGTGCAG,3800 fluorescence intensity (a.u.)
16,GTAAGGTGCTCGATTAGCACACGTGCTCACCTTCACGGCGCGGAGTCACCTAGTGCAG,3150 fluorescence intensity (a.u.)
17,CACCAGTAATATCGTACAGTACTACTCCAACATGTCACCACGGAGTCACCTAGTGCAG,4500 fluorescence intensity (a.u.)
18,CAACATCTGACCACTACACAGCTCCCGTGGACGGTGGACCCGGAGTCACCTAGTGCAG,3780 fluorescence intensity (a.u.)
19,AACCCGCTCCGACACGTGCCACCCCTTCCCGCCACCTCGTCGGAGTCACCTAGTGCAG,12300 fluorescence intensity (a.u.)
20,GAATTTGTCGTGTCATATCCACTCGAGTCGCGAGTTGGCCCGGAGTCACCTAGTGCAG,4300 fluorescence intensity (a.u.)
21,TCGATCGCTCCCGTTCGACGCCGATCGGATGGAGCAGCGTCGGAGTCACCTAGTGCAG,3270 fluorescence intensity (a.u.)

row,Sequence,binding signal
1,ACCACCGACCGCGTCGACACCGTAGACCGTGCATCAGCCGCGGAGTCACCTAGTGCAG,3640 fluorescence intensity (a.u.)
2,CGACGATGCTGGCAGCCGTGGACGCCGTGGCTGACTCTCGCGGAGTCACCTAGTGCAG,3320 fluorescence intensity (a.u.)
3,TTACAGCTCACACTGACGCCTGGGCCCCACTAGTCAGTCTCGGAGTCACCTAGTGCAG,3220 fluorescence intensity (a.u.)
4,TCTAGTCTAGTATTCCACGCGGCAAAGCAACGTGTACTTTCGGAGTCACCTAGTGCAG,5620 fluorescence intensity (a.u.)
5,ATAGAGTGTACTTTCGTATGTCATACTTGAAATTTGCCAGCGGAGTCACCTAGTGCAG,3670 fluorescence intensity (a.u.)
6,TAGTGCTGTGCTGGCTAGTCATTTTATAAGTTCATAGGTCCGGAGTCACCTAGTGCAG,5440 fluorescence intensity (a.u.)
7,TTTGGGAAGAAATGGTGATGGTGGTTTCGTTGGTGTTGTGCGGAGTCACCTAGTGCAG,3310 fluorescence intensity (a.u.)
8,AGAAAGGATCTGACTAGGTGGGCCCAATGACGACGTGGGGCGGAGTCACCTAGTGCAG,6770 fluorescence intensity (a.u.)
9,GGCTTCAACGGTGTTCAATATCTTAGGTGATGTCCTTTTGCGGAGTCACCTAGTGCAG,3340 fluorescence intensity (a.u.)
10,GGGATCTGAAGTGAACTTATTTCATAAATAAAATGGGCTGCGGAGTCACCTAGTGCAG,3220 fluorescence intensity (a.u.)
11,CAGTCAAGTGTGATCTGGATTCCTCGTCCCGTGGAGCCTTCGGAGTCACCTAGTGCAG,3910 fluorescence intensity (a.u.)
12,GTCCTCCCTTTCCCACTCCACCTATGACGACCACCGTCGGCGGAGTCACCTAGTGCAG,10800 fluorescence intensity (a.u.)
13,CGCGTCTCTCCTCTCCCCGCTTGCACTGCAGCTCACGCGTCGGAGTCACCTAGTGCAG,3150 fluorescence intensity (a.u.)
14,CTACAAAATGTAATTGCTAGTTATGACTCAGACGCTACCTCGGAGTCACCTAGTGCAG,10500 fluorescence intensity (a.u.)
15,TACCTGATAACACACGTGTGGTGGCTTAGCTAGCTTCCTTCGGAGTCACCTAGTGCAG,5280 fluorescence intensity (a.u.)
16,TATGTGATTTACATGAGTCATTACGGTGTGCAGATGCCAACGGAGTCACCTAGTGCAG,5040 fluorescence intensity (a.u.)
17,ACCAAATGAAATACAGAGCTCAGCAACTTGTAGCATTGGTCGGAGTCACCTAGTGCAG,24800 fluorescence intensity (a.u.)
18,TTCGCCGTCGTCCTGCTGCTTCCGCCGCATCCATCCCGGTCGGAGTCACCTAGTGCAG,6990 fluorescence intensity (a.u.)
19,GCGGCGCGACAGCGACAAAGCGCACGCGCGCGGCGAGCTGCGGAGTCACCTAGTGCAG,30800 fluorescence intensity (a.u.)
20,AAGTCGTTCACTCGGCAACGTGTCATCCGGATAGACGTTGCGGAGTCACCTAGTGCAG,6700 fluorescence intensity (a.u.)
21,CTATGTTAATCTTAAGCGGGACGGGACATACGTGGAATCTCGGAGTCACCTAGTGCAG,5260 fluorescence intensity (a.u.)

# Taken from above.
# binding signal with TACCTGATAACACACGTGTGGTGGCTTAGCTAGCTTCCTTCGGAGTCACCTAGTGCAG reads 5280 fluorescence intensity (a.u.)
# binding signal with TAGTGCTGTGCTGGCTAGTCATTTTATAAGTTCATAGGTCCGGAGTCACCTAGTGCAG reads 5440 fluorescence intensity (a.u.)
